Results taken from paper PMC1473194.
No constants are given. Whether binding was seen depends on the method and setting. Some binding calls cover weakened binding; strength is not graded here. Sequences can lack the tags named with a protein.

Amino acid sequences for entries named in this document (tags omitted). A change or cut given only in a name is not applied to a line headed by its entry.
UniProt P06803: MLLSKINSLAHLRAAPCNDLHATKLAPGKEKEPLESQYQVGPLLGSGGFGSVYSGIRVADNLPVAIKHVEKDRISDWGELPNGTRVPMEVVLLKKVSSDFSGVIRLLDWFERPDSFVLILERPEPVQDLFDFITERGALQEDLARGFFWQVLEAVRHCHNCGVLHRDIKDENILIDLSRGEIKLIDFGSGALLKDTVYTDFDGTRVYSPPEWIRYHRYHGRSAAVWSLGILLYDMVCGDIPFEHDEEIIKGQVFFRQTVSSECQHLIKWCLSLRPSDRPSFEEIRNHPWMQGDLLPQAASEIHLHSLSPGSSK

Columns and labels:
[1] = target: wild-type GAL4-Pim-1 fusion protein (GAL4 DNA-binding domain fused with wild-type Pim-1) (murine) (UniProt P06803); assay: two-hybrid; mating assay, modified two-hybrid with baits fused to the GAL4 DNA-binding domain and VP16-B19 as prey; growth of diploid strains on selective medium lacking histidine (Figure 1A)
[2] = target: mutant GAL4-Pim-1 fusion protein (GAL4 DNA-binding domain fused with kinase-deficient K67M Pim-1) (murine) (UniProt P06803); assay: as above
[3] = target: kinase-deficient K67M mutant of Pim-1 fused to the LexA DNA-binding domain (murine) (UniProt P06803); assay: two-hybrid; library screen; bait Pim-1 K67M fused to the LexA DNA-binding domain, prey cDNA library of EBV-transformed human lymphocytes fused to the VP16 activation domain; growth on histidine-deficient plates with 25 mM 3-aminotriazole and beta-galactosidase

binding [1]: binds
binding [2]: binds
binding [3]: binds
B1: VP16-B19 fusion protein (amino acids 264-404 of human RUNX3 fused to the VP16 activation domain) (domain or fragment, UniProt Q13761 264-404)
chain: PDPRMHYPGAMSAAFPYSATPSGTSISSLSVAGMPATSRFHHTYLPPPYPGAPQNQSGPFQANPSPYHLYYGTSSGSYQFSMVAGSSSGGDRSPTRMLASCTSSAASVAAGNLMNPSLGGQSDGVEADGSHSNSPTALSTP
